{
  "sequences": {"note": "Chains of the proteins cited; added tags and fusions are not shown.", "UniProt P03129": "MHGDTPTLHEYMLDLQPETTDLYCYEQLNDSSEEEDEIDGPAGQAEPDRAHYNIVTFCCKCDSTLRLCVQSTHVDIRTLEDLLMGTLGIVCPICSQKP", "UniProt Q8N726": "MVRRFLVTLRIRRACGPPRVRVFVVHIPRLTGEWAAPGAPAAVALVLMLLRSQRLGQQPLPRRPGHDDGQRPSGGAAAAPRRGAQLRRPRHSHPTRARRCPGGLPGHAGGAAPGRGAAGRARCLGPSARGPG"},
  "source": "paper PMC4010441",
  "target": "GST-E7 fusion protein (HPV16 E7) (HPV16) (UniProt P03129)",
  "experiment": "pull-down; direct binding assay: soluble, purified p14ARF incubated with GST-E7 or GST alone immobilized on glutathione resin; western blot for p14ARF; both purified",
  "note": "No constants are given. Whether binding was seen depends on the method and setting.",
  "data": [
    {"substance": "Soluble, purified p14^ARF (from bacteria) (from UniProt Q8N726 1-132)", "values": [
      {"measurement": "binding", "value": "no binding"}
    ]}
  ]
}
